Data from article PMC4678830.

How the values were obtained:
Assay in all cases: EMSA
[1] = target: T1, SNM1B/Apollo nuclease domain WT S330F (human) (UniProt Q9H816); conditions: no added metal stated; 5'-phosphate; EMSA: 1 nM DNA, 20 mM HEPES pH 7.9, 50 mM KCl, 0.5 mM DTT, 0.05% Triton-X, 0.1 mg/ml BSA, 5% glycerol, 5 min at 37 C, then ice; loading dye with 10 mM EDTA; recombinant protein; residues 1-335; protein details: His tag removed by TEV; label: 3' 32P-dATP added by TdT; single-stranded DNA; letters put together from the description
T1 sequence (looked up): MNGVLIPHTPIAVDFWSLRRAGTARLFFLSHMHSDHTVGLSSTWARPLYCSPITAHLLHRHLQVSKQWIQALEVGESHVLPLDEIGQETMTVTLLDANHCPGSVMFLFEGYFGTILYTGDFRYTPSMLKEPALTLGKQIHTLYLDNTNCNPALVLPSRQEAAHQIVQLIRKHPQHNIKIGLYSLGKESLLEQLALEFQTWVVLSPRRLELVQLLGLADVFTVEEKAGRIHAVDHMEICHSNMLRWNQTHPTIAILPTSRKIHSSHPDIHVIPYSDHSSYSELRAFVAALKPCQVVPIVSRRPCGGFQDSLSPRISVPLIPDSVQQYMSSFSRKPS

[2] = target: T2, SNM1B-S183A S183A,S330F (human) (UniProt Q9H816); conditions: no added metal stated; 5'-phosphate; EMSA: 1 nM DNA, 20 mM HEPES pH 7.9, 50 mM KCl, 0.5 mM DTT, 0.05% Triton-X, 0.1 mg/ml BSA, 5% glycerol, 5 min at 37 C, then ice; loading dye with 10 mM EDTA; recombinant protein; residues 1-335; protein details: His tag removed by TEV; label: 3' 32P-dATP added by TdT; single-stranded DNA; letters put together from the description
T2 sequence (looked up): T1 sequence (looked up) with S183A

[3] = target: T3, SNM1A nuclease domain WT (human) (UniProt Q6PJP8); conditions: no added metal stated; 5'-phosphate; EMSA: 1 nM DNA, 20 mM HEPES pH 7.9, 50 mM KCl, 0.5 mM DTT, 0.05% Triton-X, 0.1 mg/ml BSA, 5% glycerol, 5 min at 37 C, then ice; loading dye with 10 mM EDTA; recombinant protein; residues 676-1040; protein details: His tag removed by TEV; label: 3' 32P-dATP added by TdT; single-stranded DNA; letters put together from the description
T3 sequence (looked up): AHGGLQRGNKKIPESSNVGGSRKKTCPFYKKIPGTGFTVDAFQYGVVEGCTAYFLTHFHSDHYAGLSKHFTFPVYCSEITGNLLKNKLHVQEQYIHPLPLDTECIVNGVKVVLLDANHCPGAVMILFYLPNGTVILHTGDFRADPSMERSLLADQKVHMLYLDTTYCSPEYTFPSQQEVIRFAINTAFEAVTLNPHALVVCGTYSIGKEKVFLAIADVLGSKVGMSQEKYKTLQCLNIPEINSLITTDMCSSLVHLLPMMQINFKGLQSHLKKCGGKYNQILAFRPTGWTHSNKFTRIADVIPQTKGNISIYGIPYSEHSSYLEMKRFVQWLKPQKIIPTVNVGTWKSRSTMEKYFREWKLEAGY

[4] = target: T4, SNM1A-K904A-K906T (human) (UniProt Q6PJP8); conditions: no added metal stated; 5'-phosphate; EMSA: 1 nM DNA, 20 mM HEPES pH 7.9, 50 mM KCl, 0.5 mM DTT, 0.05% Triton-X, 0.1 mg/ml BSA, 5% glycerol, 5 min at 37 C, then ice; loading dye with 10 mM EDTA; recombinant protein; residues 676-1040; protein details: His tag removed by TEV; label: 3' 32P-dATP added by TdT; single-stranded DNA; letters put together from the description
T4 sequence (looked up): T3 sequence (looked up) with K229A, K231T

## TTATAAATAAAATATTAAAACCAATTTGATCATCTATTATATATTTATTAA [51-mer ssDNA (50-mer top strand plus 3' labelled dA)]
[1]
  binding result: binds
[2]
  binding result: binds more weakly
[3]
  binding result: binds
[4]
  binding result: binds more weakly

Changes are numbered by the printed parent chain. Construct, isoform or probe ends are uncertain for at least one entry. For some of these results: The comparison behind a weaker result is the experiment's own reference, which may not be listed here. Protein sequences can lack the tags named with them. For some of these results: At least one verdict was read from the data and is not stated in words by the source.
